No constants are given. Whether binding was seen depends on the method and setting. Some entries that bind do so weakly or less than the wild type.
Key:
Siah-1 (human) [1] = biological target: T1, Siah-1 (human) (UniProt Q8IUQ4); experiment: yeast two-hybrid
T1 sequence: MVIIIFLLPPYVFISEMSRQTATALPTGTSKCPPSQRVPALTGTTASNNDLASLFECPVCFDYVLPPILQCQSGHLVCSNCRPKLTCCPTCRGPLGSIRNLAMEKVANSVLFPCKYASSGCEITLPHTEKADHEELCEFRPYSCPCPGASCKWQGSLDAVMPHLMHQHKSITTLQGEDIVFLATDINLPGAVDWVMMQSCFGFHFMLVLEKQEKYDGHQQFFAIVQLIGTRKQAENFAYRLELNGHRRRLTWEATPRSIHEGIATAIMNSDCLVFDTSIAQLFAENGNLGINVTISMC

Amino acid sequences for entries named in this document (tags omitted). A change or cut given only in a name is not applied to a line headed by its entry. Residues count along the entry.
UniProt Q8IUQ4: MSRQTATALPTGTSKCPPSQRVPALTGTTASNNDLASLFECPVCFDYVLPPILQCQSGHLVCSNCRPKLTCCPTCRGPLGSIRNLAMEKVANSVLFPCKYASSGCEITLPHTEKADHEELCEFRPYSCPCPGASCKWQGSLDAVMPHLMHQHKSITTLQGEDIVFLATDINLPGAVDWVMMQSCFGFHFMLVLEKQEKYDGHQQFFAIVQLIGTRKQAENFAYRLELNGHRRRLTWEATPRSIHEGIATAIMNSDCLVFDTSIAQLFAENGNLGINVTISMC
UniProt P25054, residues 2681-2843: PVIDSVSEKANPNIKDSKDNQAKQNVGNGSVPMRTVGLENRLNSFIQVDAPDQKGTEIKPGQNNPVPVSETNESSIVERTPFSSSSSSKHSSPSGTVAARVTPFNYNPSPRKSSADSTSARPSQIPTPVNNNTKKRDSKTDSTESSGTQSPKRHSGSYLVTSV

Siah-1 (human) [2] = biological target: T1, Siah-1 (human); experiment: yeast two-hybrid; LexA-APC(2681-2843) with B42-Siah-1; growth on leucine-deficient media (Leu+)
Siah-1 (human) [3] = biological target: T1, Siah-1 (human); experiment: yeast two-hybrid; LexA-APC(2681-2843) with B42-Siah-1; β-galactosidase filter assay

- binding (Siah-1 (human) [1]): binds
- binding (Siah-1 (human) [2]): binds
- binding (Siah-1 (human) [3]): binds
Substance: APC (2681-2843) (from UniProt P25054 2681-2843)
